The supplement of paper PMC7661543
± gives the standard deviation of the averaged measurements. The effect of the compound repeats well; differences between the knockouts mostly do not.

System: ZR-75-1
Test: relative cell number vs DMSO control (72 h) (% of DMSO); higher = less growth inhibition (more cells)
Description: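 QMAP-Seq: a pool of 5 breast cancer cell lines (ZR-75-1, SKBR3, HCC-38, MDA-MB-231, BT-20), each carrying 12 doxycycline-inducible Cas9 sgRNA perturbations (11 knockouts plus non-targeting sgNT), was treated with compounds for 72 h at four 10-fold doses (10 nM-10 uM or 1 nM-1 uM range). Barcodes were amplified and sequenced, and cell number was interpolated from 293T spike-in standard curves. The result is expressed as % of the median of DMSO wells. Two biological replicates.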

[1] = sgRNA knockout: sgATF3, 1000 nM
[2] = sgRNA knockout: sgATF3, 10000 nM
[3] = sgRNA knockout: sgATF4, 1000 nM
[4] = sgRNA knockout: sgATF4, 10000 nM
[5] = sgRNA knockout: sgATF6, 1000 nM
[6] = sgRNA knockout: sgATF6, 10000 nM
[7] = sgRNA knockout: sgATG7, 1000 nM
[8] = sgRNA knockout: sgATG7, 10000 nM
[9] = sgRNA knockout: sgERN1, 1000 nM
[10] = sgRNA knockout: sgERN1, 10000 nM
[11] = sgRNA knockout: sgHSF2, 1000 nM
[12] = sgRNA knockout: sgHSF2, 10000 nM
[13] = sgRNA knockout: sgNFE2L2, 10 nM
[14] = sgRNA knockout: sgNFE2L2, 100 nM
[15] = sgRNA knockout: sgNFE2L2, 1000 nM
[16] = sgRNA knockout: sgNFE2L2, 10000 nM
[17] = sgRNA knockout: sgSLC35F2, 10 nM
[18] = sgRNA knockout: sgSLC35F2, 100 nM
[19] = sgRNA knockout: sgSLC35F2, 1000 nM
[20] = sgRNA knockout: sgSLC35F2, 10000 nM
[21] = sgRNA knockout: sgXBP1, 1000 nM
[22] = sgRNA knockout: sgXBP1, 10000 nM

| SMILES | relative cell number (sgRNA knockout: sgATF3, 10 nM) | relative cell number (sgRNA knockout: sgATF3, 100 nM) | relative cell number [1] | relative cell number (sgRNA knockout: sgATF4, 10 nM) | relative cell number (sgRNA knockout: sgATF4, 100 nM) | relative cell number [3] | relative cell number (sgRNA knockout: sgATF6, 10 nM) | relative cell number (sgRNA knockout: sgATF6, 100 nM) | relative cell number [5] | relative cell number (sgRNA knockout: sgATG7, 10 nM) | relative cell number (sgRNA knockout: sgATG7, 100 nM) | relative cell number [7] | relative cell number (sgRNA knockout: sgERN1, 10 nM) | relative cell number (sgRNA knockout: sgERN1, 100 nM) | relative cell number [9] | relative cell number (sgRNA knockout: sgHSF2, 10 nM) | relative cell number (sgRNA knockout: sgHSF2, 100 nM) | relative cell number [11] | relative cell number [13] | relative cell number [14] | also measured |
| --- | --- | --- | --- | --- | --- | --- | --- | --- | --- | --- | --- | --- | --- | --- | --- | --- | --- | --- | --- | --- | --- |
| C[C@]1(c2nc3c(C(N)=O)cccc3[nH]2)CCCN1 [Veliparib] | 118 ± 68 | 104 ± 38 | 86.8 ± 12 | 106 ± 44 | 137 ± 8.5 | 102 ± 34 | 122 ± 66 | 91.1 ± 23 | 116 ± 15 | 120 ± 29 | 120 ± 9 | 101 ± 44 | 124 ± 9.6 | 78.6 ± 11 | 109 ± 23 | 103 ± 12 | 92 ± 13 | 79 ± 7.2 | 129 ± 24 | 117 ± 22 | relative cell number [2]: 71.9 ± 27; relative cell number [4]: 56.7 ± 7.5; relative cell number [6]: 110 ± 13; relative cell number [8]: 68.5 ± 3.9; relative cell number [10]: 78.4 ± 3; relative cell number [12]: 72.8 ± 3.1; relative cell number [15]: 101 ± 32; relative cell number [16]: 80.1 ± 2.6; relative cell number [17]: 128 ± 76; relative cell number [18]: 161 ± 15; relative cell number [19]: 94.8 ± 54; relative cell number [20]: 61.4 ± 18; relative cell number (sgRNA knockout: sgXBP1, 10 nM): 113 ± 19; relative cell number (sgRNA knockout: sgXBP1, 100 nM): 114 ± 9.2; relative cell number [21]: 98.8 ± 20; relative cell number [22]: 73.3 ± 5.5 |
| COCC[n+]1c2c(n(Cc3cnccn3)c1C)C(=O)c1ccccc1C2=O [YM155] | 30.2 ± 0.79 | 5.43 ± 2.5 | 4.23 ± 1.5 | 31.9 ± 4.1 | 10.3 ± 0.65 | 3.47 ± 2.1 | 50.5 ± 1.4 | 7.51 ± 2.1 | 3.64 ± 0.16 | 23.6 ± 6.6 | 4.3 ± 3.2 | 2.78 ± 2.1 | 53.4 ± 7.7 | 12.5 ± 7.1 | 3.32 ± 2.9 | 25.7 ± 4.3 | 7.47 ± 1.7 | 3.44 ± 2.1 | 26.5 ± 8.9 | 7.33 ± 2.3 | relative cell number (sgRNA knockout: sgATF3, 1 nM): 113 ± 2.9; relative cell number (sgRNA knockout: sgATF4, 1 nM): 83.1 ± 11; relative cell number (sgRNA knockout: sgATF6, 1 nM): 141 ± 10; relative cell number (sgRNA knockout: sgATG7, 1 nM): 106 ± 6.8; relative cell number (sgRNA knockout: sgERN1, 1 nM): 95.3 ± 4.2; relative cell number (sgRNA knockout: sgHSF2, 1 nM): 86.8 ± 15; relative cell number (sgRNA knockout: sgNFE2L2, 1 nM): 109 ± 8.1; relative cell number [15]: 5.03 ± 0.82; relative cell number (sgRNA knockout: sgSLC35F2, 1 nM): 91.3 ± 29; relative cell number [17]: 31.1 ± 9.6; relative cell number [18]: 20.8 ± 2.6; relative cell number [19]: 9.43 ± 9; relative cell number (sgRNA knockout: sgXBP1, 1 nM): 88.2 ± 18; relative cell number (sgRNA knockout: sgXBP1, 10 nM): 35.7 ± 5.8; relative cell number (sgRNA knockout: sgXBP1, 100 nM): 4.88 ± 0.2; relative cell number [21]: 3.15 ± 1.6 |
| FC(F)c1nc2ccccc2n1-c1nc(N2CCOCC2)nc(N2CCOCC2)n1 [ZSTK474] | 92.5 ± 3.9 | 114 ± 25 | 64.3 ± 2.2 | 131 ± 18 | 104 ± 22 | 78.5 ± 44 | 156 ± 40 | 100 ± 12 | 62.9 ± 23 | 80.4 ± 17 | 81.7 ± 38 | 61.8 ± 8.8 | 107 ± 6.9 | 87.3 ± 1.9 | 66.1 ± 9.8 | 96.8 ± 5.7 | 88.3 ± 10 | 57 ± 5.2 | 96.1 ± 5.2 | 103 ± 12 | relative cell number [2]: 46.8 ± 20; relative cell number [4]: 44.9 ± 12; relative cell number [6]: 39.7 ± 5.2; relative cell number [8]: 43 ± 6.6; relative cell number [10]: 48.2 ± 11; relative cell number [12]: 46.7 ± 7.3; relative cell number [15]: 76.2 ± 15; relative cell number [16]: 36.4 ± 11; relative cell number [17]: 72.3 ± 12; relative cell number [18]: 88.3 ± 12; relative cell number [19]: 78.2 ± 3; relative cell number [20]: 41.1 ± 6.3; relative cell number (sgRNA knockout: sgXBP1, 10 nM): 93.4 ± 15; relative cell number (sgRNA knockout: sgXBP1, 100 nM): 83.7 ± 4; relative cell number [21]: 67.7 ± 9.1; relative cell number [22]: 36.9 ± 11 |
| O=c1ncccn1[C@@H]1O[C@H](CO)[C@@H](O)[C@H]1O [Zebularine] | 117 ± 18 | 107 ± 15 | 101 ± 3.8 | 116 ± 5.5 | 81.6 ± 50 | 85 ± 4.1 | 166 ± 4.5 | 137 ± 14 | 99.9 ± 29 | 103 ± 33 | 93.1 ± 5.9 | 91.4 ± 17 | 101 ± 26 | 114 ± 5.9 | 104 ± 46 | 124 ± 58 | 78.7 ± 3.5 | 98.1 ± 2.8 | 98.7 ± 29 | 146 ± 11 | relative cell number [2]: 125 ± 45; relative cell number [4]: 129 ± 33; relative cell number [6]: 81.2 ± 33; relative cell number [8]: 101 ± 31; relative cell number [10]: 135 ± 20; relative cell number [12]: 110.6 ± 0.53; relative cell number [15]: 74.7 ± 10; relative cell number [16]: 125 ± 16; relative cell number [17]: 117 ± 31; relative cell number [18]: 62.6 ± 4.1; relative cell number [19]: 61.2 ± 9.2; relative cell number [20]: 83 ± 56; relative cell number (sgRNA knockout: sgXBP1, 10 nM): 98.5 ± 25; relative cell number (sgRNA knockout: sgXBP1, 100 nM): 120 ± 4.4; relative cell number [21]: 89.2 ± 24; relative cell number [22]: 132 ± 28 |
